This test relates to L1210 leukemia ip in BDF1 mice, survival T/C. The experiment in a line: NCI In Vivo Anticancer Drug Screen. Data for tumor model L1210 Leukemia (intraperitoneal) in B6D2F1 (BDF1) mice. The conditions noted are these: T/C endpoint: mean survival time, higher T/C = longer survival.
[1] abbreviates: dose: 100.0 mg/kg/injection, schedule: Q01DX009 (ip), vehicle: Klucel (hydroxypropylcellulose) (HPC).
The mark [2] stands for this setting: dose: 200.0 mg/kg/injection, schedule: Q01DX009 (ip), vehicle: Klucel (hydroxypropylcellulose) (HPC).
[3] abbreviates: dose: 400.0 mg/kg/injection, schedule: Q01DX009 (ip), vehicle: Klucel (hydroxypropylcellulose) (HPC).
The mark [4] stands for this setting: dose: 132.0 mg/kg/injection, schedule: Q01DX001 (ip), vehicle: saline.
The mark [5] stands for this setting: dose: 200.0 mg/kg/injection, schedule: Q01DX001 (ip), vehicle: carboxymethylcellulose (CMC).
Where [6] appears, read: dose: 200.0 mg/kg/injection, schedule: Q01DX001 (ip), vehicle: saline.
Setting [7] is: dose: 100.0 mg/kg/injection, schedule: Q01DX001 (ip), vehicle: saline.
[8] abbreviates: dose: 400.0 mg/kg/injection, schedule: Q01DX001 (ip), vehicle: saline.

The list does not hold the whole screen: it covers a few groups of compounds. Not every dose and run of a compound is shown. T/C is the treated group as % of the vehicle group. Some entries give survivors of the animals treated and no T/C: the source holds a T/C of zero for them, seemingly a mark for toxic or unscored doses. Some doses without a T/C left all or most animals alive at the check, yet need not have been tolerated: the source hardly ever lists a survival T/C far under the control, and the zero likely stands for such cases as well. Counts of survivors are from the toxicity check (mostly the fifth day) where no day follows; animals may have died later. Schedule codes are those of the source, read here as Q, the interval in days (D) or hours (H), X, the number of doses. For survival time, this PubChem deposit counts one and a half times the control or more as active, and values a quarter to a half above the control carry no call in these data; other NCI protocols may use other cut-offs. Some T/C values carry the count of animals alive at the toxicity check (mostly the fifth day); where neither a count nor a note follows, no animal had died by that day. Some entries hold several experiments; the results are listed from low to high. Some entries show no survivor count and are marked so; the dose need not have been tolerated. Some schedule codes hold Z or #, which are not explained here.

Consider `NN/C(N)=N/[N+](=O)[O-]`, for which the T/C runs as follows: (dose: 5.0 mg/kg/injection, schedule: Q01DX Z (oral), vehicle: methylcellulose (MC)) 93 % of control [survivor count not shown]; (dose: 10.0 mg/kg/injection, schedule: Q01DX Z (oral), vehicle: methylcellulose (MC)) 102 % of control [survivor count not shown]; (dose: 15.0 mg/kg/injection, schedule: Q01DX Z (ip), vehicle: methylcellulose (MC)) 102 % of control [survivor count not shown]; (dose: 15.0 mg/kg/injection, schedule: Q01DX Z (oral), vehicle: methylcellulose (MC)) 97 % of control [survivor count not shown]; (dose: 30.0 mg/kg/injection, schedule: Q01DX Z (ip), vehicle: methylcellulose (MC)) 95 % of control [survivor count not shown].

`O=C1C(Cl)=C(NCCBr)C(=O)C(Cl)=C1NCCBr`: the T/C (dose: 12.5 mg/kg/injection, schedule: Q04DX003 (ip), vehicle: Klucel (hydroxypropylcellulose) (HPC)) was 92 % of control; the T/C (dose: 25.0 mg/kg/injection, schedule: Q04DX003 (ip), vehicle: Klucel (hydroxypropylcellulose) (HPC)) is 98 % of control; the T/C (dose: 50.0 mg/kg/injection, schedule: Q04DX003 (ip), vehicle: Klucel (hydroxypropylcellulose) (HPC)) was 103 % of control; the T/C under setting [1] was 87 % of control; the T/C (dose: 100.0 mg/kg/injection, schedule: Q04DX003 (ip), vehicle: Klucel (hydroxypropylcellulose) (HPC)) is 92 % of control; the T/C under setting [2] was 93 % of control. In addition, the T/C (dose: 200.0 mg/kg/injection, schedule: Q04DX003 (ip), vehicle: Klucel (hydroxypropylcellulose) (HPC)) is 95 % of control; the T/C under setting [3] was 90 % of control; the T/C (dose: 400.0 mg/kg/injection, schedule: Q04DX003 (ip), vehicle: Klucel (hydroxypropylcellulose) (HPC)) was 97 % of control.

As to `Cc1cc(N(CCCl)CCCl)c2ccccc2c1`, the T/C is 93 % of control (dose: 0.75 mg/kg/injection, schedule: Q01DX001 (ip), vehicle: saline); 95 % of control (dose: 1.5 mg/kg/injection, schedule: Q01DX001 (ip), vehicle: saline); 98 % of control (dose: 3.0 mg/kg/injection, schedule: Q01DX001 (ip), vehicle: saline); 106 % of control (dose: 6.0 mg/kg/injection, schedule: Q01DX001 (ip), vehicle: saline); 124 % of control (dose: 11.0 mg/kg/injection, schedule: Q01DX001 (ip), vehicle: Klucel (hydroxypropylcellulose) (HPC)); 123 % of control (dose: 19.0 mg/kg/injection, schedule: Q01DX009 (ip), vehicle: saline). For the same compound, the T/C is, setting by setting: (dose: 22.0 mg/kg/injection, schedule: Q01DX001 (ip), vehicle: Klucel (hydroxypropylcellulose) (HPC)) 112 % of control; (dose: 29.0 mg/kg/injection, schedule: Q01DX009 (ip), vehicle: saline) 146 % of control; (dose: 38.0 mg/kg/injection, schedule: Q01DX001 (ip), vehicle: saline) 115 % of control; (dose: 44.0 mg/kg/injection, schedule: Q01DX001 (ip), vehicle: Klucel (hydroxypropylcellulose) (HPC)) 124 % of control; (dose: 44.0 mg/kg/injection, schedule: Q01DX009 (ip), vehicle: saline) 109 % of control [5 of 6 alive]; (dose: 58.0 mg/kg/injection, schedule: Q01DX001 (ip), vehicle: saline) 120 % of control. Further, the T/C is 89 % of control (dose: 66.0 mg/kg/injection, schedule: Q01DX009 (ip), vehicle: saline); 120 % of control (dose: 75.0 mg/kg/injection, schedule: Q01DX001 (ip), vehicle: carboxymethylcellulose (CMC)); 135 % of control [5 of 6 alive] (dose: 88.0 mg/kg/injection, schedule: Q01DX001 (ip), vehicle: Klucel (hydroxypropylcellulose) (HPC)); 115 % of control (dose: 88.0 mg/kg/injection, schedule: Q01DX001 (ip), vehicle: carboxymethylcellulose (CMC)); 126, 143, 151 % of control (dose: 88.0 mg/kg/injection, schedule: Q01DX001 (ip), vehicle: saline); 119 % of control (dose: 132.0 mg/kg/injection, schedule: Q01DX001 (ip), vehicle: carboxymethylcellulose (CMC)). The T/C by setting is: under setting [4], 158 % of control; (dose: 150.0 mg/kg/injection, schedule: Q01DX001 (ip), vehicle: carboxymethylcellulose (CMC)) 129 % of control; under setting [5], 107 % of control; under setting [6], 86 [5 of 6 alive] and 134 % of control; (dose: 300.0 mg/kg/injection, schedule: Q01DX001 (ip), vehicle: carboxymethylcellulose (CMC), evaluated on day 30) 111 % of control; (dose: 300.0 mg/kg/injection, schedule: Q01DX001 (ip), vehicle: carboxymethylcellulose (CMC), run until all animals had died) 145 % of control. In addition, the T/C runs as follows: (dose: 300.0 mg/kg/injection, schedule: Q01DX001 (ip), vehicle: saline) 88 [5 of 6 alive] and 132 % of control; (dose: 800.0 mg/kg/injection, schedule: Q01DX001 (ip), vehicle: saline) 141 % of control. Besides, the survivor count is recorded as 6 of 6 (dose: 66.0 mg/kg/injection, schedule: Q01DX009 (ip), vehicle: carboxymethylcellulose (CMC)); 6 of 6 (dose: 100.0 mg/kg/injection, schedule: Q01DX009 (ip), vehicle: carboxymethylcellulose (CMC)); 4 of 6 (dose: 100.0 mg/kg/injection, schedule: Q01DX009 (ip), vehicle: saline); 6 of 6 under setting [4]; 6 of 6 (dose: 150.0 mg/kg/injection, schedule: Q01DX009 (ip), vehicle: carboxymethylcellulose (CMC)); 1 of 6 (dose: 150.0 mg/kg/injection, schedule: Q01DX009 (ip), vehicle: saline). Also, the survivor count (dose: 225.0 mg/kg/injection, schedule: Q01DX009 (ip), vehicle: carboxymethylcellulose (CMC)) is listed as 3 of 6 and the survivor count (dose: 600.0 mg/kg/injection, schedule: Q01DX001 (ip), vehicle: Klucel (hydroxypropylcellulose) (HPC)) is on record as 1 of 6.

For the compound `NCCCNCCBr`, the T/C by setting is: under setting [7], 111 % of control; under setting [6], 118 % of control; under setting [8], 116 % of control.

As for `CCOP(=O)(CC)OCCBr` (configuration not stated), the T/C runs as follows: (dose: 100.0 mg/kg/injection, schedule: Q04DX002 (ip), vehicle: saline with Tween-80) 101 % of control [survivor count not shown]; (dose: 200.0 mg/kg/injection, schedule: Q04DX002 (ip), vehicle: saline with Tween-80) 96 % of control [survivor count not shown]; (dose: 400.0 mg/kg/injection, schedule: Q04DX002 (ip), vehicle: saline with Tween-80) 89 % of control [survivor count not shown].

As for `CCCCOP(=S)(S)OCCCC.[Hg]`, the T/C is 94 % of control under setting [1] and 92 % of control under setting [2]. The survivor count under setting [3] is 4 of 6.

As for `O=P(O)(O)F`, the T/C runs as follows: (dose: 50.0 mg/kg/injection, schedule: Q01DX001 (ip), vehicle: carboxymethylcellulose (CMC)) 96 % of control; (dose: 100.0 mg/kg/injection, schedule: Q01DX001 (ip), vehicle: carboxymethylcellulose (CMC)) 105 % of control; under setting [5], 105 % of control. In addition, the survivor count (dose: 400.0 mg/kg/injection, schedule: Q01DX001 (ip), vehicle: carboxymethylcellulose (CMC)) was 1 of 4.

Regarding `O=C(O)C(O)(c1ccccc1)c1ccccc1.OC1CN2CCC1CC2`, the T/C reads like this: under setting [7], 98 % of control [survivor count not shown]; (dose: 100.0 mg/kg/injection, schedule: Q04DX003 (ip), vehicle: saline) 97 % of control [survivor count not shown]; under setting [6], 105 % of control [survivor count not shown]; (dose: 200.0 mg/kg/injection, schedule: Q04DX003 (ip), vehicle: saline) 101 % of control [survivor count not shown]; under setting [8], 100 % of control [survivor count not shown]; (dose: 400.0 mg/kg/injection, schedule: Q04DX003 (ip), vehicle: saline) 114 % of control [survivor count not shown].
